# These are yes or no findings as the source states them, for the method shown. Binding seen in cells or lysates may run through a third protein. Some binding calls cover weakened binding; strength is not graded here.
# T1: TRX1 (human (endogenous in SH-SY5Y)), P10599
# T1 chain: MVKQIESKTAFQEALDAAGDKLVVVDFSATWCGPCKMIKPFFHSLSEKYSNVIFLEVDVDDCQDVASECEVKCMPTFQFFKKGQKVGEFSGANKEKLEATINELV
# B1: TXNIP, Q9H3M7 1-391 (protein)
# chain: MVMFKKIKSFEVVFNDPEKVYGSGEKVAGRVIVEVCEVTRVKAVRILACGVAKVLWMQGSQQCKQTSEYLRYEDTLLLEDQPTGENEMVIMRPGNKYEYKFGFELPQGPLGTSFKGKYGCVDYWVKAFLDRPSQPTQETKKNFEVVDLVDVNTPDLMAPVSAKKEKKVSCMFIPDGRVSVSARIDRKGFCEGDEISIHADFENTCSRIVVPKAAIVARHTYLANGQTKVLTQKLSSVRGNHIISGTCASWRGKSLRVQKIRPSILGCNILRVEYSLLIYVSVPGSKKVILDLPLVIGSRSGLSSRTSSMASRTSSEMSWVDLNIPDTPEAPPCYMDVIPEDHRLESPTTPLLDDMDGSQDSPIFMYAPEFKFMPPPTYTEVDPCILNNNVQ
# Target: T1, TRX1 (human (endogenous in SH-SY5Y)), …
# Experiment: co-IP; SH-SY5Y cell lysates (RIPA buffer), immunoprecipitated with anti-TRX1 antibody or control IgG on protein A/G-agarose, overnight 4 C, blot for TXNIP; cells treated with MPP+ (1 mM) or MPP+ and MG132 (1 uM) for 24 h, with LncZFAS1 overexpression or knockout
# Details: remark: other sources report otherwise
binder,measurement,value
B1,binding,binds

# Reference: article PMC8857135
